Drug screen on melanoma cell lines: apoptosis marker

First drug in all entries: nilutamide, 5 µM, CC1(C)NC(=O)N(c2ccc([N+](=O)[O-])c(C(F)(F)F)c2)C1=O

Drug key:
dovitinib, 0.5 µM: CN1CCN(c2ccc3nc(-c4c(N)c5c(F)cccc5[nH]c4=O)[nH]c3c2)CC1
enzastaurin, 4 µM: Cn1cc(C2=C(c3cn(C4CCN(Cc5ccccn5)CC4)c4ccccc34)C(=O)NC2=O)c2ccccc21
everolimus, 0.1 µM: CO[C@H]1C[C@@H]2CC[C@@H](C)[C@@](O)(O2)C(=O)C(=O)N2CCCC[C@H]2C(=O)O[C@H]([C@H](C)C[C@@H]2CC[C@@H](OCCO)[C@H](OC)C2)CC(=O)[C@H](C)/C=C(\C)[C@@H](O)[C@@H](OC)C(=O)[C@H](C)C[C@H](C)/C=C/C=C/C=C/1C
SNS-032, 0.05 µM: CC(C)(C)c1cnc(CSc2cnc(NC(=O)C3CCNCC3)s2)o1
tipifarnib, 0.05 µM: Cn1cncc1[C@@](N)(c1ccc(Cl)cc1)c1ccc2c(c1)c(-c1cccc(Cl)c1)cc(=O)n2C
temozolomide, 10 µM: Cn1nnc2c(C(N)=O)ncn2c1=O
FK866, 0.05 µM: O=C(/C=C/c1cccnc1)NCCCCC1CCN(C(=O)c2ccccc2)CC1
CHIR-265, 0.4 µM: Cn1c(Nc2ccc(C(F)(F)F)cc2)nc2cc(Oc3ccnc(-c4ncc(C(F)(F)F)[nH]4)c3)ccc21
bortezomib, 0.005 µM: CC(C)C[C@H](NC(=O)[C@H](Cc1ccccc1)NC(=O)c1cnccn1)B(O)O
bexarotene, 10 µM: C=C(c1ccc(C(=O)O)cc1)c1cc2c(cc1C)C(C)(C)CCC2(C)C
dasatinib, 0.02 µM: Cc1nc(Nc2ncc(C(=O)Nc3c(C)cccc3Cl)s2)cc(N2CCN(CCO)CC2)n1
KU-55933, 5 µM: O=c1cc(-c2cccc3c2Sc2ccccc2S3)oc(N2CCOCC2)c1
PF-562271, 0.4 µM: CN(c1ncccc1CNc1nc(Nc2ccc3c(c2)CC(=O)N3)ncc1C(F)(F)F)S(C)(=O)=O
KU-0063794, 0.1 µM: COc1ccc(-c2ccc3c(N4CCOCC4)nc(N4C[C@@H](C)O[C@@H](C)C4)nc3n2)cc1CO
crizotinib, 1 µM: C[C@@H](Oc1cc(-c2cnn(C3CCNCC3)c2)cnc1N)c1c(Cl)ccc(F)c1Cl
BI-D1870, 1 µM: CC(C)CCN1c2nc(Nc3cc(F)c(O)c(F)c3)ncc2N(C)C(=O)C1C (centres undefined)
lenalidomide, 5 µM: Nc1cccc2c1CN(C1CCC(=O)NC1=O)C2=O (centres undefined)
vatalanib, 10 µM: Clc1ccc(Nc2nnc(Cc3ccncc3)c3ccccc23)cc1
PF-04217903, 5 µM: OCCn1cc(-c2cnc3nnn(Cc4ccc5ncccc5c4)c3n2)cn1
GW9662, 10 µM: O=C(Nc1ccccc1)c1cc([N+](=O)[O-])ccc1Cl
vismodegib, 5 µM: CS(=O)(=O)c1ccc(C(=O)Nc2ccc(Cl)c(-c3ccccn3)c2)c(Cl)c1
GW0742, 10 µM: Cc1cc(SCc2sc(-c3ccc(C(F)(F)F)c(F)c3)nc2C)ccc1OCC(=O)O
GSK650394, 0.8 µM: O=C(O)c1ccc(-c2c[nH]c3ncc(-c4ccccc4)cc23)cc1C1CCCC1

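The test systems are human melanoma cell lines, treated with a pair of drugs for 72 h and then stained and imaged. Values are the share of nuclei positive for cleaved PARP as a percentage of the same share in the DMSO control: 100 is the control level, higher means more apoptosis. Every drug was used at one fixed concentration, the higher of two screened. These are primary screening values without error estimates. The marker varies much from line to line, for technical or biological reasons.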 Only some of the drugs and lines screened are listed, without regard to their results.

Partner | WM451Lu | WM3619 | MeWo | COLO 792 | SK-MEL-5
FK866 | 47.6 | 102 | 67.9 | 536 | 37.9
crizotinib | 137 | 84.6 | 95.4 | 228 | 54.3
BI-D1870 | 105 | 141 | 165 | 111 | 97.5
GSK650394 | 65.7 | 115 | 111 | 188 | 213
KU-55933 | 42.9 | 151 | 41.7 | 39.1 | 33.8
vismodegib | 59.4 | 74.4 | 117 | 46.3 | 91.7
vatalanib | 62.6 | 132 | 202 | 109 | 149
dovitinib | 64.5 | 101 | 276 | 115 | 26.2
PF-562271 | 101 | 105 | 108 | 49.6 | 137
everolimus | 131 | 134 | 186 | 181 | 195
dasatinib | 45.4 | 94.2 | 131 | 199 | 61.4
GW9662 | 95.5 | 123 | 17.8 | 90.5 | 32.2
lenalidomide | 126 | 101 | 61.4 | 47.4 | 54.6
CHIR-265 | 597 | 185 | 115 | 1150 | 671
PF-04217903 | 70.6 | 87.8 | 87.8 | 118 | 122
tipifarnib | 241 | 137 | 73.3 | 155 | 122
KU-0063794 | 33.5 | 177 | 26.3 | 103 | 48.1
GW0742 | 24.1 | 113 | 43.1 | 104 | 217
bortezomib | 3210 | 2230 | 1930 | 380 | 280
bexarotene | 54.6 | 113 | 102 | 105 | 267
SNS-032 | 499 | 100 | 80.6 | 301 | 59.7
temozolomide | 310 | 102 | 104 | 129 | 167
enzastaurin | 70.2 | 86.8 | 46.5 | 108 | 115

Some entries from above, unchanged:

{"partner": "KU-0063794", "WM451Lu": 33.5, "WM3619": 177, "MeWo": 26.3, "COLO 792": 103, "SK-MEL-5": 48.1}
{"partner": "enzastaurin", "WM451Lu": 70.2, "WM3619": 86.8, "MeWo": 46.5, "COLO 792": 108, "SK-MEL-5": 115}

Values as published with doi:10.1371/journal.pone.0140310, rounded.